The results in this text go back to US20260274959A1 (FUJIAN MEDICAL UNIVERSITY, published 2026).

No constants are given. Whether binding was seen depends on the method and setting. Some binding calls cover weakened binding; strength is not graded here.

For assay [1], the target named is T1, mouse B7-H4 protein (from a laboratory of Fujian Medical University) (mouse) (UniProt Q7TSP5).
T1 sequence (looked up): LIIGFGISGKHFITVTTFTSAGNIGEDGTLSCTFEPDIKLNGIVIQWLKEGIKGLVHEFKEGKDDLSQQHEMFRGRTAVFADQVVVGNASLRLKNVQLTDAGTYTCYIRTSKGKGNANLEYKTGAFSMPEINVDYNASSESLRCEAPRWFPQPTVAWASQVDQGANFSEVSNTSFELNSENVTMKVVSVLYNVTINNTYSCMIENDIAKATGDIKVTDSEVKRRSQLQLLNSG
The assay can be described thus: ELISA, protein coated at 2 µg/mL, antibody at 10 µg/mL.

The target of assay [2] is T2, mouse B7-H4 IgV-like domain protein (from a laboratory of Fujian Medical University) (mouse) (UniProt Q7TSP5).
T2 sequence (looked up): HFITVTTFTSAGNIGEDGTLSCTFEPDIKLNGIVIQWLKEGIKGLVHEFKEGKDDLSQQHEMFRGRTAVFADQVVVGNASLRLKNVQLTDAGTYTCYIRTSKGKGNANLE
The description is as above.

B1: Npsc-A8 full-length antibody (antibody, V domains shown)
VH: QVQLQESGGGLMQVGGSLRLSCTASGFVFGDYGMNWVRQAPGKGLEWVSLIDTYGASTFYADSVKGRFTISRDNSKQTVFLQMDGLRADDTAMYFCAKPILMFPAFDLWGPGTMVTVSS
VL: DVVMTQSPSSLSASVGDRVTITCRASQGIRNDLAWYQKKPGKAPKRLIYAASSLQSGVPSRFSGSGYGAEFSLTISSLQPEDFATYFCLHHSQYPWTFGQGTKVDIKR
notes: also called Npsc-A8 antibody
On to B1, for which the binding result in assay [1] and in assay [2] was “binds” in each case.
